PubChem BioAssay AID686943 | Drosophila RNAi Screening Center | 2013
The deposit covers about 23,000 reagents; below is a random part of those with a known target gene and a result. 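Extra replicates exist only for a retested subset of genes; insulin dose and duration not given; both raised and lowered dpERK matter.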 Names joined by + are all predicted targets of the reagent. Not all columns of the deposit are shown. No sequences are given here. Not given: the amount of reagent, the time to read-out.

Purpose: 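Knockdowns that increase or decrease active ERK after insulin receptor stimulation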 (primary screen)
System: Drosophila S2R+ haemocyte-like cells expressing YFP-tagged ERK (Rolled)
Knock-down reagent: long dsRNA against Drosophila genes
Treatment: insulin stimulation versus unstimulated cells; dose and duration not given
Measured: 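Antibody staining for doubly phosphorylated ERK divided by ERK-YFP signal, as plate z-scores, in insulin-treated and untreated cells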
Direction: replicate 1, z-score of dpERK with insulin and replicate 2, z-score of dpERK with insulin: higher = more active ERK per ERK-YFP after insulin

CG11686 (GeneID 50024) [DRSC14350] — replicate 1, z-score of dpERK with insulin = 0.48; replicate 2, z-score of dpERK with insulin = 0.49
CG9344 (GeneID 37372) [DRSC04541] — replicate 1, z-score of dpERK with insulin = 1.64; replicate 2, z-score of dpERK with insulin = 0.19
Fcp3C (GeneID 31294) [DRSC18665] — replicate 1, z-score of dpERK with insulin = 0.64; replicate 2, z-score of dpERK with insulin = 0.33
CG5068 (GeneID 39032) [DRSC10476] — replicate 1, z-score of dpERK with insulin = -0.18; replicate 2, z-score of dpERK with insulin = -0.36
rig (GeneID 37335) [DRSC06053] — replicate 1, z-score of dpERK with insulin = -0.96; replicate 2, z-score of dpERK with insulin = -0.47
rig (GeneID 37335) [DRSC06400] — replicate 1, z-score of dpERK with insulin = 0.14; replicate 2, z-score of dpERK with insulin = 0.07
RpL29 (GeneID 37430) [DRSC04650] — replicate 1, z-score of dpERK with insulin = -1.02; replicate 2, z-score of dpERK with insulin = -0.49
Or94a (GeneID 42711) [DRSC16772] — replicate 1, z-score of dpERK with insulin = 0.12; replicate 2, z-score of dpERK with insulin = -0.08
CG14957 (GeneID 38386) [DRSC08416] — replicate 1, z-score of dpERK with insulin = 0.56; replicate 2, z-score of dpERK with insulin = 0.43
Rcd-1 (GeneID 32966) [DRSC19569] — replicate 1, z-score of dpERK with insulin = 2.65; replicate 2, z-score of dpERK with insulin = 3.23
CG12848 (GeneID 50139) [DRSC04128] — replicate 1, z-score of dpERK with insulin = -0.1; replicate 2, z-score of dpERK with insulin = -0.49
gdl-ORF39 + gdl [DRSC11350] — replicate 1, z-score of dpERK with insulin = 0.22; replicate 2, z-score of dpERK with insulin = -0.59
CG8661 (GeneID 32720) [DRSC20115] — replicate 1, z-score of dpERK with insulin = 0.94; replicate 2, z-score of dpERK with insulin = 0.34
l(2)10685 (GeneID 33293) [DRSC00665] — replicate 1, z-score of dpERK with insulin = -0.23; replicate 2, z-score of dpERK with insulin = -0.43
CG4907 (GeneID 42686) [DRSC15673] — replicate 1, z-score of dpERK with insulin = 0.8; replicate 2, z-score of dpERK with insulin = -0.26
CG14933 + CG42486 [DRSC02415] — replicate 1, z-score of dpERK with insulin = 0.12; replicate 2, z-score of dpERK with insulin = 0.79
PlexA (GeneID 43832) [DRSC17220] — replicate 1, z-score of dpERK with insulin = 0.58; replicate 2, z-score of dpERK with insulin = -0.68
CG33689 (GeneID 3771798) [DRSC09424] — replicate 1, z-score of dpERK with insulin = -0.07; replicate 2, z-score of dpERK with insulin = -0.45
CG11291 (GeneID 37541) [DRSC04097] — replicate 1, z-score of dpERK with insulin = 0.86; replicate 2, z-score of dpERK with insulin = -0.05
Atf-2 + veg (retired record) [DRSC04130] — replicate 1, z-score of dpERK with insulin = 0.6; replicate 2, z-score of dpERK with insulin = 1.05
Atf-2 + veg (retired record) [DRSC04413] — replicate 1, z-score of dpERK with insulin = -0.39; replicate 2, z-score of dpERK with insulin = 1.38
CG15754 (GeneID 32307) [DRSC19719] — replicate 1, z-score of dpERK with insulin = 1.23; replicate 2, z-score of dpERK with insulin = 0.86
CG7519 (GeneID 40377) [DRSC11834] — replicate 1, z-score of dpERK with insulin = 0.26; replicate 2, z-score of dpERK with insulin = 0.07
CG10752 (GeneID 39467) [DRSC09799] — replicate 1, z-score of dpERK with insulin = 0.06; replicate 2, z-score of dpERK with insulin = 0.04
RhoGAP102A (GeneID 43781) [DRSC17110] — replicate 1, z-score of dpERK with insulin = 0.37; replicate 2, z-score of dpERK with insulin = 0.35
RhoGAP102A (GeneID 43781) [DRSC17145] — replicate 1, z-score of dpERK with insulin = 0.12; replicate 2, z-score of dpERK with insulin = 0.28
CG15343 (GeneID 31765) [DRSC18028] — replicate 1, z-score of dpERK with insulin = 0.34; replicate 2, z-score of dpERK with insulin = -0.56
CG32073 (GeneID 326191) [DRSC09087] — replicate 1, z-score of dpERK with insulin = 0.16; replicate 2, z-score of dpERK with insulin = -0.16
CG32073 (GeneID 326191) [DRSC09894] — replicate 1, z-score of dpERK with insulin = 0.01; replicate 2, z-score of dpERK with insulin = -0.2
CG7218 (GeneID 42165) [DRSC16216] — replicate 1, z-score of dpERK with insulin = 0.62; replicate 2, z-score of dpERK with insulin = 0.03
CG33263 (GeneID 2768952) [DRSC10108] — replicate 1, z-score of dpERK with insulin = -0.45; replicate 2, z-score of dpERK with insulin = 0.34
CG6059 (GeneID 43270) [DRSC15958] — replicate 1, z-score of dpERK with insulin = -0.24; replicate 2, z-score of dpERK with insulin = -0.21
CG14589 (GeneID 35541) [DRSC04866] — replicate 1, z-score of dpERK with insulin = -0.41; replicate 2, z-score of dpERK with insulin = 0.6
mthl9 (GeneID 38056) [DRSC08506] — replicate 1, z-score of dpERK with insulin = -0.15; replicate 2, z-score of dpERK with insulin = -0.09
fd102C (GeneID 43843) [DRSC17203] — replicate 1, z-score of dpERK with insulin = 1.06; replicate 2, z-score of dpERK with insulin = 1.07
Cpr49Ac (GeneID 36348) [DRSC07199] — replicate 1, z-score of dpERK with insulin = 0.75; replicate 2, z-score of dpERK with insulin = 0.61
CG11836 (GeneID 43007) [DRSC14396] — replicate 1, z-score of dpERK with insulin = 0.33; replicate 2, z-score of dpERK with insulin = 0.51
Cyp18a1 (GeneID 32858) [DRSC20235] — replicate 1, z-score of dpERK with insulin = 1.84; replicate 2, z-score of dpERK with insulin = 1.73
otp (GeneID 37364) [DRSC04050] — replicate 1, z-score of dpERK with insulin = -1.76; replicate 2, z-score of dpERK with insulin = -1.98
otp (GeneID 37364) [DRSC04707] — replicate 1, z-score of dpERK with insulin = 0.49; replicate 2, z-score of dpERK with insulin = -1.63
